# Experimental data published in patent US12071430B2 (The Johns Hopkins University, priority 2011, dated 2024).
# “Also recorded” adds a separate entry of the source. For some of these results: At least one compound was matched to its structure with a doubt left. Some entries share one result that the patent states for a list of compounds. Some compounds share one range, which may span the group rather than tell each member.
# Tests used:
# VEGFR2 = assay: Immunofluorescence assay, VEGFR2 cellular localization; format: cell-based, human; conditions: HUVEC, 2 μM, 24 h, colocalized with GM130
# Protocol: Immunofluorescence assay. HUVECs (5000) were seeded in 4-well chamber slide (Nunc™ Lab-Tek™ II) with 1 mL media and cultured overnight. Cells were treated with […] drugs or DMSO for 24 h. The media was then aspirated and washed 3 times with PBS. Cells were fixed with 4% paraformaldehyde for 15 min, washed three times with PBS, permeabilized with 0.1% Triton X and washed again. 2% BSA blocking buffer was applied to the cells for 1 h. The primary antibodies of VEGFR2 (1:50, cell signaling, #2479) and GM130 (1:1000, BD, #610823) were incubated overnight at 4° C. After washing 3 times with 0.5% BSA in PBS, secondary antibody solutions (1:1000 goat anti-rabbit Alexa Fluor 488, Invitrogen, #A11008 and 1:1000 goat anti-mouse Alexa Fluor 594, Invitrogen, A11005) were applied at room temperature for 1 h in the dark. After washing 3 times, slides were incubated in 0.1 μg/mL DAPI solution for 5 min and rinsed 2 times with PBS. The coverslip was mounted with Immunount (Fisher) and sealed with nail polish. Confocal images were taken using Zeiss LSM700 confocal microscope with 20× lenses.
# HUVECs = assay: Filipin staining of intracellular cholesterol (NPC phenotype); format: cell-based, human; conditions: HUVEC, 0.2 μM, 24 h
# Source text: Nieman-Pick C phenotype and mTOR inhibition. […] We thus determined whether compound 48 shared the same mechanism with itraconazole. The intracellular cholesterol was detected using the cholesterol-binding fluorescent dye filipin. […] It is known that AMPK activation leads to mTOR inhibition.
# Inhibition of NPC1. NPC1 plays an essential role in cholesterol export from the endolysosome. […] At a close view (FIG. 9B), the linear pyridinyl-piperizin-1-yl-phenyl core of compound 14 nestled into the hydrophobic channel created by the transmembrane helix. The isobutyl tail faced toward the open entrance of this channel. The tetrazole moiety pointed into the closed end of the pocket and interacted with the hydroxyl group of Tyr1225 via hydrogen bonding.
# Filipin staining. 2000 HUVECs were plated in chamber slide with 1 ml media and allowed to settle overnight. […] The the cells were fixed with 4% paraformaldehyde for 15 min. After washed, cells were incubated with 500 ul 50 ug/ml filipin solution for 1 hour in the dark. Then the cells were washed twice with PBS, mounted and covered with coverslip. The images were taken using confocal microscope under 360/460 nm.
# HUVEC = HUVEC proliferation, [3H]-thymidine incorporation assay; format: cell-based, human
# Protocol: (§1) The inhibitory effects of the new analogs on HUVEC proliferation were measured using a [3H]-thymidine incorporation assay. The log P values, used as an indicator of lipophilicity, were calculated using ALOGPS2.1 software. Aqueous solubility is a key physiochemical property relevant for oral absorption. We determined the solubility of each analog in 0.001 N HCl (pH=3), which represents the acidic human gastric fluid.
# HUVEC Culture and Proliferation Assays. HUVEC (Lonza) were grown in EGM-2 bullet kit media (Lonza) and used at passage eight or lower. The H thymidine incorporation assays were conducted as previously described. Briefly, cells were seeded on 96-well plate at a concentration of 2000 cells/well and allowed to settle overnight. Drugs were added to each well in triplicate. After 24 hours, cells were treated with 1 μCi of [3H] thymidine for 6 h. Then cells were harvested and transferred to filtermats. The scintillation were counted and IC50 were determined using Prism software (version 6.0).
# [1] = Aqueous solubility test in 0.001N HCl; format: physicochemical
# Protocol: as §1
# Aqueous solubility test. In a 1.5 mL microcentrifuge tube, 2 ul of 10 mM compound stock solution in DMSO was added to 1 mL 0.001N HCl aqueous buffer to obtain saturated solution. The resulting mixture was shaken under 600 rpm for 24 h at room temperature. Then the tube was centrifuged at 13,000 rpm for 5 min to remove the undissolved compound. 100 ul of the supernatant was injected to an Agilent 6120 LC/MS for analysis. The mass spectrometry data was collected under SIM/Scan mode. The ions of compound Exact Mass+1 and Exact Mass+23 were monitored as selected ion monitoring (SIM) for peak area integration. Solubility was calculated according to the concentration standard curve of each compound.
SMILES,VEGFR2 cellular localization (VEGFR2),induction of NPC phenotype (cholesterol accumulation) (HUVECs),decrease in anti-proliferative / anti-angiogenic activity compared to itraconazole (HUVEC),"solubility compared with itraconazole, in words [1]"
"CCC(C)n1ncn(-c2ccc(N3CCN(c4ccc(OCC5COC(Cn6cncn6)(c6ccc(Cl)cc6Cl)O5)cc4)CC3)cc2)c1=O (stereo not shown) [itraconazole, reference compound]",accumulated in the perinuclear region,induced NPC phenotype; also recorded: massive build-up of cholesterol,–,–
"CCC(C)n1ncn(-c2ccc(N3CCN(c4ccc(OC[C@@H]5CO[C@@](CN6CCNCC6)(c6ccc(Cl)cc6Cl)O5)cc4)CC3)cc2)c1=O (stereo partly drawn) [Compound 66, 1-(sec-butyl)-4-(4-(4-(4-(((2S,4R)-2-(2,4-dichlorophenyl)-2-(piperazin-1-ylmethyl)-1,3-dioxolan-4-yl)methoxy)phenyl)piperazin-1-yl)phenyl)-1H-1,2,4-triazol-5(4H)-one]",–,–,2-9 fold,improved solubility
"CCC(C)n1ncn(-c2ccc(N3CCN(c4ccc(OC[C@@H]5CO[C@@](CN(C)C)(c6ccc(Cl)cc6Cl)O5)cc4)CC3)cc2)c1=O (stereo partly drawn) [Compound 64, 1-(sec-butyl)-4-(4-(4-(4-(((2S,4R)-2-(2,4-dichlorophenyl)-2-((dimethylamino)methyl)-1,3-dioxolan-4-yl)methoxy)phenyl)piperazin-1-yl)phenyl)-1H-1,2,4-triazol-5(4H)-one]",–,–,2-9 fold,improved solubility
"CCC(C)n1ncn(-c2ccc(N3CCN(c4ccc(OC[C@@H]5CO[C@@](CN6CCOCC6)(c6ccc(Cl)cc6Cl)O5)cc4)CC3)cc2)c1=O (stereo partly drawn) [Compound 63, 1-(sec-butyl)-4-(4-(4-(4-(((2S,4R)-2-(2,4-dichlorophenyl)-2-(morpholinomethyl)-1,3-dioxolan-4-yl)methoxy)phenyl)piperazin-1-yl)phenyl)-1H-1,2,4-triazol-5(4H)-one]",–,–,2-9 fold,improved solubility
"CCC(C)n1ncn(-c2ccc(N3CCN(c4ccc(OC[C@@H]5CO[C@@](CN6CCN(C)CC6)(c6ccc(Cl)cc6Cl)O5)cc4)CC3)cc2)c1=O (stereo partly drawn) [Compound 65, 1-(sec-butyl)-4-(4-(4-(4-(((2S,4R)-2-(2,4-dichlorophenyl)-2-((4-methylpiperazin-1-yl)methyl)-1,3-dioxolan-4-yl)methoxy)phenyl)piperazin-1-yl)phenyl)-1H-1,2,4-triazol-5(4H)-one]",–,–,2-9 fold,improved solubility
